Reference: the supplement of paper PMC10849652
The list shows a part of the results. Residues, ends and D or L forms follow the SMILES beside them. *: point of attachment. Cbz = O=C(OCc1ccccc1)*

By UniProt entry, the sequences of proteins in these tests, tags left out. Where a name states a change or a piece, a line headed by the entry shows the natural chain unless it says otherwise.
UniProt Q8WW12: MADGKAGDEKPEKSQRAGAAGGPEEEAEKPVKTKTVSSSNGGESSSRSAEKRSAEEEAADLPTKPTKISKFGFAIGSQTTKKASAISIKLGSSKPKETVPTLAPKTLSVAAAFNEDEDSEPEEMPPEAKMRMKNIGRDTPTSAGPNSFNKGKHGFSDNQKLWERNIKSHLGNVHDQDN
UniProt Q8NBM8: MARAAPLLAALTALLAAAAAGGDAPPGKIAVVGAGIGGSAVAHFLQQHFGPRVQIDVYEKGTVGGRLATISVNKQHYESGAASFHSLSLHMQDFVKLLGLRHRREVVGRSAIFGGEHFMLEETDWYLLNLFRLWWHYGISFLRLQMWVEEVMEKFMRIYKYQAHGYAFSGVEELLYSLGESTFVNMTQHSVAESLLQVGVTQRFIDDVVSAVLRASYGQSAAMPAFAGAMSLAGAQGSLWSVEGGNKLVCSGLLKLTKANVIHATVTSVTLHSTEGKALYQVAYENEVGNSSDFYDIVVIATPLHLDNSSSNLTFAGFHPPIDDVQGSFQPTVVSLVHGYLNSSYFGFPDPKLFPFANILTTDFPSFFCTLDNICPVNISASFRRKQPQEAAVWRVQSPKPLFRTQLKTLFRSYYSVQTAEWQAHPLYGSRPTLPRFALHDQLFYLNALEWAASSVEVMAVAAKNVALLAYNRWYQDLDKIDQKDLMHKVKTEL
UniProt Q9HBI1: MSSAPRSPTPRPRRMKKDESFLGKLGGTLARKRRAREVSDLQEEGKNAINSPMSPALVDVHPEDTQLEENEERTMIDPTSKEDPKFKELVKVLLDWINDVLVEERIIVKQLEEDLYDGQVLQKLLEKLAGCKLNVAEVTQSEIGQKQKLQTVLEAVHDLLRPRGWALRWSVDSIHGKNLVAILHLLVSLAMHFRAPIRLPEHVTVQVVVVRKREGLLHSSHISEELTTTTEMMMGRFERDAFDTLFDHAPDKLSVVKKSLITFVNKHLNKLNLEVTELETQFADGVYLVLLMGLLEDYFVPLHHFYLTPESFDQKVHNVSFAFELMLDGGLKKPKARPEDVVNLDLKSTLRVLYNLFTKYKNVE
UniProt Q15154: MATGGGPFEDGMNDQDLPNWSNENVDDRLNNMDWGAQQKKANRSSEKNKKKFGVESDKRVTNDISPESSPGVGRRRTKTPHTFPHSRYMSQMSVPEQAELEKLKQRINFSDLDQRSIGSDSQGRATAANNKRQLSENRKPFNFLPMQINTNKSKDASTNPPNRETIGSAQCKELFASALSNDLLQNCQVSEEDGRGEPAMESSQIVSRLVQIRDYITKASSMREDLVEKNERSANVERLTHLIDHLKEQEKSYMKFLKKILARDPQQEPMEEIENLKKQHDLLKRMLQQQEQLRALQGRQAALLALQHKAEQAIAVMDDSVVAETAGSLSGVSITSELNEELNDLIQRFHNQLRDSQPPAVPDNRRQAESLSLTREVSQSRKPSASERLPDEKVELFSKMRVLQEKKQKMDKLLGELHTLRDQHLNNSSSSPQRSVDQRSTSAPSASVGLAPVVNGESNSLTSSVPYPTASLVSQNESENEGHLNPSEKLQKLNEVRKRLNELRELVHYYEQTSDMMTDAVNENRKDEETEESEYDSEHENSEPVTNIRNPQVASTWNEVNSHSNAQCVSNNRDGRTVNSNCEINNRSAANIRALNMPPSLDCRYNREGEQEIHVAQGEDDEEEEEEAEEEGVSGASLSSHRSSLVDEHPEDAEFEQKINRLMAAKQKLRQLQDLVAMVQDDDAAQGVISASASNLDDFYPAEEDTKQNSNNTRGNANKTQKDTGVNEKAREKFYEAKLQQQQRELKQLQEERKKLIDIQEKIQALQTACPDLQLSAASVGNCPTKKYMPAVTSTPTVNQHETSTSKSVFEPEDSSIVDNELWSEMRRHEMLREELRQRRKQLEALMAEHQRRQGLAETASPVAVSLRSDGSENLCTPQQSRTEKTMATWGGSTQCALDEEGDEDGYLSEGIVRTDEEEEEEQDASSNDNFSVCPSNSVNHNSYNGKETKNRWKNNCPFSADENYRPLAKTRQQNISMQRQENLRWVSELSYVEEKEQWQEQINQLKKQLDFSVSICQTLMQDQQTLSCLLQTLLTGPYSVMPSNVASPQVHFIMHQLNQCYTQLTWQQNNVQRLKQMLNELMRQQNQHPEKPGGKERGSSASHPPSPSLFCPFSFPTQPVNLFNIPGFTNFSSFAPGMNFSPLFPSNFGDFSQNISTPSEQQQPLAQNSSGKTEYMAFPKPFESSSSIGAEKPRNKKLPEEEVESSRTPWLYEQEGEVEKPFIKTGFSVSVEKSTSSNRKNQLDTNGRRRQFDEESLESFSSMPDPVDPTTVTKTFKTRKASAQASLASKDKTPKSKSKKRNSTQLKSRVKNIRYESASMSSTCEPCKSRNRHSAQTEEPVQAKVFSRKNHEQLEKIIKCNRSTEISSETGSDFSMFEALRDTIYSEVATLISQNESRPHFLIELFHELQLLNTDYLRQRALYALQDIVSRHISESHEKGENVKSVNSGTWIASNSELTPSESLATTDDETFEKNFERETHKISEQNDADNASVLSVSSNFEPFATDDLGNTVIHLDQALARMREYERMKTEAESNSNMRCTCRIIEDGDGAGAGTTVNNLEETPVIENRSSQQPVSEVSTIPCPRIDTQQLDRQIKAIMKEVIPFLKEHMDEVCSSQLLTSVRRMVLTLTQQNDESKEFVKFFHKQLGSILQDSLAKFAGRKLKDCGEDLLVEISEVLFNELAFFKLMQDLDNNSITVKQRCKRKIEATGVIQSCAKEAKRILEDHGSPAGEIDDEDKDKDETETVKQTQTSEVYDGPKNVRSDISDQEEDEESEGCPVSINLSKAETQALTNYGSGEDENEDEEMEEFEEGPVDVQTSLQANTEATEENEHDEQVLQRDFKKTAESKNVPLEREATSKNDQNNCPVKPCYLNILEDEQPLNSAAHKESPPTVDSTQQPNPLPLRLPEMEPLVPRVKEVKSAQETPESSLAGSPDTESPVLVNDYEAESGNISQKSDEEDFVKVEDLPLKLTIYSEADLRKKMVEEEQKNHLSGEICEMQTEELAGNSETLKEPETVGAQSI
UniProt Q96HC4: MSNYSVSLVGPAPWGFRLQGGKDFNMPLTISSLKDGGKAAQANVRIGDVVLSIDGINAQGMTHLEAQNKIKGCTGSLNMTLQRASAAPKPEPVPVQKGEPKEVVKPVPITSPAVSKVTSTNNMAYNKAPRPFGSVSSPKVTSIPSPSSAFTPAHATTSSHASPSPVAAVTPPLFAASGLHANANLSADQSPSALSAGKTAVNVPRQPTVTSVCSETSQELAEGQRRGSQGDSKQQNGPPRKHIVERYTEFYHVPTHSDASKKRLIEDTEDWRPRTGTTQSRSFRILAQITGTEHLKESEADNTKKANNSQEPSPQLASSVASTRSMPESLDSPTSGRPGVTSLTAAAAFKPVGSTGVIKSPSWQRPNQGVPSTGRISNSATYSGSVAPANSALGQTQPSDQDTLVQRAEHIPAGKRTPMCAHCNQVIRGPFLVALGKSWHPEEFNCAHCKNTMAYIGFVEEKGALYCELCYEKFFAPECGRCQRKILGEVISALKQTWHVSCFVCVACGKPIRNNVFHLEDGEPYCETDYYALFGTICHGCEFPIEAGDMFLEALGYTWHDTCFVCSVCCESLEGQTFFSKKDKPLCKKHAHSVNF
UniProt Q9NP74: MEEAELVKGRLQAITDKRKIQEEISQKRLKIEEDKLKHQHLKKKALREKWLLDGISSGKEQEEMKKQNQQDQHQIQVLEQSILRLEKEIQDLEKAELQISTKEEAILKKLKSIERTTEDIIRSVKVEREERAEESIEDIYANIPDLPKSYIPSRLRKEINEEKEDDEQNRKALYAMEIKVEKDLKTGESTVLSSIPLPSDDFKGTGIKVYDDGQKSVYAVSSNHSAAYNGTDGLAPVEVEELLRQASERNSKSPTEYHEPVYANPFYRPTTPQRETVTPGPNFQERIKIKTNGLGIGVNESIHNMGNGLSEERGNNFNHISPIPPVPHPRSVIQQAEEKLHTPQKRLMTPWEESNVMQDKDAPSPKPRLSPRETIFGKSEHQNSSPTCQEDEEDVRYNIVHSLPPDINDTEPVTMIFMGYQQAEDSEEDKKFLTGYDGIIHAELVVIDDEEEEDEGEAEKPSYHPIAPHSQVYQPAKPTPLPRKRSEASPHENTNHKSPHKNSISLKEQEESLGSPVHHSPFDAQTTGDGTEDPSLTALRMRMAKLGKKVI
UniProt P30086: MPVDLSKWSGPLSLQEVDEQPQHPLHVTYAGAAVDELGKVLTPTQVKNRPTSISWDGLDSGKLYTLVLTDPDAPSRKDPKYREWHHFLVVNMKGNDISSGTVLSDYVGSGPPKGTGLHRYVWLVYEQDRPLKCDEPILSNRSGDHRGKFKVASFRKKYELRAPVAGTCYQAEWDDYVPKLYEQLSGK
UniProt Q99447: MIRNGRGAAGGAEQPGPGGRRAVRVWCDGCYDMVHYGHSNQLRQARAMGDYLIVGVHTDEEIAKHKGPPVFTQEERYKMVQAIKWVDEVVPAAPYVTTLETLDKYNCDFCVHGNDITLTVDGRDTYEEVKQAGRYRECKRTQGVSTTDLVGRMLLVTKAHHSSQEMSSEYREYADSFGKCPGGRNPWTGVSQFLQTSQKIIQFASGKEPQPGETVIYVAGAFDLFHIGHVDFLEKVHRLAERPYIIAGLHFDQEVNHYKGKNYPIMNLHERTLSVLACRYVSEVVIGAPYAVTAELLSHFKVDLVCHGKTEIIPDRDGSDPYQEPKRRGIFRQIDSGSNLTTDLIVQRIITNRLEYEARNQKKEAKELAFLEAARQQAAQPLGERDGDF
UniProt P22234: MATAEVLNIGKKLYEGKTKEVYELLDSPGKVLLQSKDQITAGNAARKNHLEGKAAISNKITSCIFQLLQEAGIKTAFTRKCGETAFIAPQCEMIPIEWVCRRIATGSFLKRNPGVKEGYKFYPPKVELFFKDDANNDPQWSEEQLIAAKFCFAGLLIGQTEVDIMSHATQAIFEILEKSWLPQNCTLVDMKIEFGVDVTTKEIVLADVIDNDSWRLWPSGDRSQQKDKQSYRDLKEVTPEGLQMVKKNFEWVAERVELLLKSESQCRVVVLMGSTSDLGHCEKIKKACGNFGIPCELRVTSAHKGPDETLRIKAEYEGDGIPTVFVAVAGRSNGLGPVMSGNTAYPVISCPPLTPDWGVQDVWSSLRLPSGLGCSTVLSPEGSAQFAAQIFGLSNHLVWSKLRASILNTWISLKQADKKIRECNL
UniProt Q13442: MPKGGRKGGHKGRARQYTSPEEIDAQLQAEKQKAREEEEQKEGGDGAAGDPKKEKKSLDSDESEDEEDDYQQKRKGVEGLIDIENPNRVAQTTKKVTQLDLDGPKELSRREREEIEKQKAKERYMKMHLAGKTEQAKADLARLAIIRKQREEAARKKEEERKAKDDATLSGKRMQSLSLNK
UniProt Q9BVG4: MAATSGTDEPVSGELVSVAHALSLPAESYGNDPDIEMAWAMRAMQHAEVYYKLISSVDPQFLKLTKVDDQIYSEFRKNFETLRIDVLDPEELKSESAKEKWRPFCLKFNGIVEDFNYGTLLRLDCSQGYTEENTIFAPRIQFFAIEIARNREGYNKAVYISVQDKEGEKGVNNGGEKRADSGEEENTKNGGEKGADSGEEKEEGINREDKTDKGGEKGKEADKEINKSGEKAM
UniProt Q9H074: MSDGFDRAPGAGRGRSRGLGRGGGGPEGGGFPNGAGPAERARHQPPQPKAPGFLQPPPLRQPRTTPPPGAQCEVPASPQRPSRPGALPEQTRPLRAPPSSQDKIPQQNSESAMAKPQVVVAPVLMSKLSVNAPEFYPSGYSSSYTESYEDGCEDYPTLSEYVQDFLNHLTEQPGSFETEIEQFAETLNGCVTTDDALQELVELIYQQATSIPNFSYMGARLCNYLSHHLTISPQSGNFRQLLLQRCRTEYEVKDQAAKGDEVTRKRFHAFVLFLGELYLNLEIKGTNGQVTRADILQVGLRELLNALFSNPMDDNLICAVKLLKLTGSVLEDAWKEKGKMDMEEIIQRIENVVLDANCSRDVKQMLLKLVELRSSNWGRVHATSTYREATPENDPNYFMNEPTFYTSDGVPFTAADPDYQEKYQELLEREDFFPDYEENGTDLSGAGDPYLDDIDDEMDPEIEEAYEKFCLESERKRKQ
UniProt P12955: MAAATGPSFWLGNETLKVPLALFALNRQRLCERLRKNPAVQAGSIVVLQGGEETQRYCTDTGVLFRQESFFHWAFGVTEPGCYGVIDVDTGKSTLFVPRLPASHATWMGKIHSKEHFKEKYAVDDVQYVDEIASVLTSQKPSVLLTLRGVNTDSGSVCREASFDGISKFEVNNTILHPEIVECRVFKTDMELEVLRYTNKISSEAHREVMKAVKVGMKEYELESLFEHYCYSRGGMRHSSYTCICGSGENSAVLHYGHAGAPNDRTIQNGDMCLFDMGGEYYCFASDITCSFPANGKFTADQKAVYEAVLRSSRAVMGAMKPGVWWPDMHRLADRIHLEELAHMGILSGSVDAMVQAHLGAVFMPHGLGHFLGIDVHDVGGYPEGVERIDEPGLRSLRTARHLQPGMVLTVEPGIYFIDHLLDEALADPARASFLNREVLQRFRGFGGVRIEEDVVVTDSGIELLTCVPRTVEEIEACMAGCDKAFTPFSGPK

What was measured:
Experiment in all cases: log2 fold change, soluble protein after heating vs DMSO (PISA); higher = thermal stabilisation; K562 cells, 10 uM, 30 min; active = over 0.2 and 3.5 SD of the protein, either way, in both replicates (recomputed)
[1] = compound: C1COCCN1CCN2C3=CC=CC=C3N=C2NC(=O)C4=CC(=CC=C4)[N+](=O)[O-] [IRAK-1-4 Inhibitor I]
Outline: (§1)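 K562 cells at 2×10^6 cells/mL were treated with 10 μM compound for 30 min. Aliquots were heated for 3 min across 48°C-58°C, pooled, and extracted in PBS with 0.5% NP-40 at 4°C; soluble protein was the supernatant after 21,000xg for 90 min. Soluble protein was quantified by TMTpro 16plex LC-MS/MS with channel sums equalised, and reported as log2 fold change in thermal stability against DMSO controls, with values from duplicates.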

[2] = compound: C=CC(=O)N1CCC[C@@H](n2nc(-c3ccc(Oc4ccccc4)cc3)c3c(N)ncnc32)C1 [ibrutinib]
Outline: as §1

[3] = compound: CC(=O)c1cnc2ccc(-c3cc(Cl)c(O)c(Cl)c3)nc2c1N[C@H]1CC[C@H](CN(C)C)CC1
Outline: as §1

[4] = compound: CC(C)(C)Cn1c(N)nc2ccc(-c3[nH]c(C(C)(C)C)nc3-c3ccc(F)cc3)nc21 [ralimetinib]
Outline: as §1

[5] = compound: CC(C)(O)CC(=O)NCCn1ccc2ncnc(Nc3ccc(Oc4cccc(C(F)(F)F)c4)c(Cl)c3)c21
Outline: as §1

[6] = compound: CC(C)C1=C2N=C(C=C(N2N=C1)NCC3=CC=CC=C3)NCCCCCCN
Outline: as §1

[7] = compound: CC(C)C[C@@H](C=O)NC(=O)[C@H](CC(C)C)NC(=O)[C@H](CC(C)C)NC(=O)OCc1ccccc1
Outline: as §1

[8] = compound: CC(C)N(C[C@H]1O[C@@H](n2cnc3c(N)ncnc32)[C@H](O)[C@@H]1O)[C@H]1C[C@@H](CCc2nc3cc(C(C)(C)C)ccc3[nH]2)C1 [pinometostat]
Outline: as §1

[9] = compound: CC1=C(C(CC(=O)N1)C2=CC=C(C=C2)C(F)(F)F)C(=O)NC3=C(C=C4C(=C3)C=NN4)F
Outline: as §1

[10] = compound: CC1=C(C2=C(C=C1)C(=O)C3=CC=CC=C3N2CCCN)C
Outline: as §1

[11] = compound: CC1=C(C=C(C=C1)NC(=O)C2=CC(=CC=C2)C(C)(C)C#N)NC3=CC4=C(C=C3)N=CN(C4=O)C
Outline: as §1

[12] = compound: CC1=C(C=C(C=C1)NC(=O)C2=CC(=CC=C2)N(C)C)NC(=O)C3=CC=C(C=C3)O
Outline: as §1

[13] = compound: CC1=CC=C(C=C1)SC2=C3C=C(SC3=CN=C2)C(=O)N
Outline: as §1

[14] = compound: CC1=NC(=CC=C1)C2=C(N=C(N2)C(C)(C)C)C3=CC4=NC=CN=C4C=C3
Outline: as §1

[15] = compound: CCCCN(Cc1ccc(C(=O)NO)cc1)C(=O)Nc1ccccc1 [Nexturastat A]
Outline: as §1

[16] = compound: CCCS(=O)(=O)Nc1ccc(F)c(C(=O)c2c[nH]c3ncc(-c4ccc(Cl)cc4)cc23)c1F [vemurafenib]
Outline: as §1

[17] = compound: CCCS(=O)(=O)Nc1ccc(F)c(C(=O)c2c[nH]c3ncc(Cl)cc23)c1F
Outline: as §1

[18] = compound: CCCc1cc(C)[nH]c(=O)c1CNC(=O)c1cc(-c2ccnc(N3CCN(C)CC3)c2)cc2c1cnn2C(C)C
Outline: as §1

[19] = compound: CCN(CC)Cc1ccc2cc(COC(=O)Nc3ccc(C(=O)NO)cc3)ccc2c1 [givinostat]
Outline: as §1

[20] = compound: CCN(CCCOc1ccc2c(Nc3cc(CC(=O)Nc4cccc(F)c4)[nH]n3)ncnc2c1)CCOP(=O)(O)O [barasertib]
Outline: as §1

Measured: log2 fold change

PCNP (UniProt Q8WW12)
inactive: [1] 0.041 | [2] 0.008 | [3] 0.041 | [4] -0.022 | [5] 0.066 | [6] 0.098 | [7] -0.063 | [8] -0.086 | [9] -0.019 | [10] 0.029 | [11] -0.046 | [12] 0.009 | [13] 0.017 | [14] 0.065 | [15] -0.003 | [16] -0.031 | [17] 0.002 | [18] 0.08 | [19] -0.022 | [20] -0.013

PARD6B (UniProt Q9BYG5)
inactive: [1] 0.02 | [2] 0.064 | [3] -0.272 | [4] 0.007 | [5] -0.073 | [6] -0.048 | [7] 0.008 | [8] -0.003 | [9] 0.002 | [10] 0.039 | [11] -0.215 | [12] -0.02 | [13] 0.05 | [14] -0.075 | [15] 0.046 | [16] 0.003 | [17] 0.081 | [18] -0.105 | [19] 0.125 | [20] 0.002

PCYOX1L (UniProt Q8NBM8)
inactive: [1] -0.016 | [2] 0.008 | [3] 0.003 | [4] -0.013 | [5] -0.016 | [6] 0.1 | [7] -0.049 | [8] -0.069 | [9] -0.056 | [10] -0.012 | [11] -0.033 | [12] -0.039 | [13] -0.043 | [14] -0.03 | [15] -0.06 | [16] 0.021 | [17] 0.005 | [18] 0.015 | [19] -0.027 | [20] 0.004

PARVB (UniProt Q9HBI1)
inactive: [1] 0.026 | [2] -0.009 | [3] -0.025 | [4] 0.142 | [5] -0.081 | [6] -0.042 | [7] 0.013 | [8] 0.06 | [9] 0.02 | [10] 0.031 | [11] 0 | [12] -0.006 | [13] 0.038 | [14] 0.011 | [15] -0.021 | [16] 0.005 | [17] 0.039 | [18] 0.014 | [19] 0 | [20] 0.041

PCM1 isoform 5 (UniProt Q15154)
inactive: [1] -0.032 | [2] -0.088 | [3] -0.157 | [4] 0.112 | [5] 0.065 | [6] -0.091 | [7] 0.033 | [8] 0.22 | [9] -0.035 | [10] -0.076 | [11] -0.127 | [12] -0.015 | [13] -0.077 | [14] -0.017 | [15] 0.287 | [16] -0.075 | [17] -0.019 | [18] 0.089 | [19] 0.083 | [20] -0.011

PBXIP1 (UniProt Q96AQ6)
inactive: [1] 0.008 | [2] 0.029 | [3] 0.036 | [4] -0.004 | [5] 0.021 | [6] -0.012 | [7] 0.031 | [8] 0.013 | [9] -0.016 | [10] 0.039 | [11] -0.003 | [12] -0.012 | [13] 0.027 | [14] -0.032 | [15] 0.018 | [16] -0.046 | [17] -0.041 | [18] -0.011 | [19] 0.011 | [20] -0.022

PDLIM5 (UniProt Q96HC4)
inactive: [1] 0.049 | [2] -0.005 | [3] -0.055 | [4] -0.036 | [5] -0.042 | [6] 0.054 | [7] 0.006 | [8] 0.003 | [9] 0.028 | [10] 0.012 | [11] 0.011 | [12] -0.054 | [13] 0.014 | [14] 0.065 | [15] -0.04 | [16] 0.018 | [17] -0.003 | [18] -0.043 | [19] 0.001 | [20] -0.008

PALMD (UniProt Q9NP74)
inactive: [1] 0.016 | [2] -0.001 | [3] -0.017 | [4] -0.044 | [5] 0.044 | [6] 0.061 | [7] 0.03 | [8] -0.025 | [9] 0.038 | [10] -0.045 | [11] -0.177 | [12] 0.041 | [13] -0.019 | [14] -0.014 | [15] -0.074 | [16] 0.022 | [17] -0.022 | [18] 0.024 | [19] -0.021 | [20] -0.041

PEBP1 (UniProt P30086)
inactive: [1] 0.046 | [2] 0.002 | [3] 0.028 | [4] -0.016 | [5] 0.015 | [6] 0.042 | [7] -0.02 | [8] -0.042 | [9] 0.015 | [10] -0.062 | [11] -0.007 | [12] 0.03 | [13] 0.015 | [14] 0.007 | [15] 0.006 | [16] -0.012 | [17] 0.01 | [18] 0 | [19] -0.038 | [20] -0.011

PCYT2 isoform 3 (UniProt Q99447)
inactive: [1] 0.02 | [2] -0.004 | [3] 0.032 | [4] 0.026 | [5] -0.004 | [6] 0.126 | [7] -0.05 | [8] -0.033 | [9] 0.017 | [10] 0.021 | [11] -0.02 | [12] 0.005 | [13] 0.011 | [14] 0.032 | [15] -0.082 | [16] 0.011 | [17] 0.034 | [18] -0.059 | [19] -0.067 | [20] 0.015

PAICS (UniProt P22234)
inactive: [1] 0.043 | [2] 0.002 | [3] 0.019 | [4] -0.001 | [5] -0.008 | [6] 0.073 | [7] 0.005 | [8] -0.034 | [9] 0.037 | [10] 0.009 | [11] 0.01 | [12] 0.012 | [13] -0.036 | [14] 0.007 | [15] -0.066 | [16] -0.038 | [17] -0.073 | [18] -0.001 | [19] -0.041 | [20] 0.02

Retrieved one by one from above, 2 records:
PCYT2 isoform 3 (UniProt Q99447)
inactive: [1] 0.02 | [2] -0.004 | [3] 0.032 | [4] 0.026 | [5] -0.004 | [6] 0.126 | [7] -0.05 | [8] -0.033 | [9] 0.017 | [10] 0.021 | [11] -0.02 | [12] 0.005 | [13] 0.011 | [14] 0.032 | [15] -0.082 | [16] 0.011 | [17] 0.034 | [18] -0.059 | [19] -0.067 | [20] 0.015

PEBP1 (UniProt P30086)
inactive: [1] 0.046 | [2] 0.002 | [3] 0.028 | [4] -0.016 | [5] 0.015 | [6] 0.042 | [7] -0.02 | [8] -0.042 | [9] 0.015 | [10] -0.062 | [11] -0.007 | [12] 0.03 | [13] 0.015 | [14] 0.007 | [15] 0.006 | [16] -0.012 | [17] 0.01 | [18] 0 | [19] -0.038 | [20] -0.011

Next part:

PDAP1 (UniProt Q13442)
inactive: [1] -0.01 | [2] -0.066 | [3] 0.008 | [4] -0.006 | [5] 0.033 | [6] 0.089 | [7] -0.053 | [8] -0.067 | [9] 0.008 | [10] 0.003 | [11] 0.018 | [12] 0.022 | [13] -0.007 | [14] 0.057 | [15] -0.017 | [16] -0.041 | [17] -0.011 | [18] 0.019 | [19] -0.029 | [20] -0.009

PER3 isoform 2 (UniProt P56645)
inactive: [1] -0.017 | [2] 0.094 | [3] -0.028 | [4] -0.017 | [5] 0.035 | [6] 0.06 | [7] -0.018 | [8] -0.006 | [9] 0.016 | [10] -0.052 | [11] -0.034 | [12] 0.061 | [13] -0.064 | [14] 0.044 | [15] 0.027 | [16] 0.024 | [17] 0.04 | [18] 0.067 | [19] -0.039 | [20] -0.027

PBDC1 (UniProt Q9BVG4)
inactive: [1] 0.009 | [2] 0.005 | [3] -0.07 | [4] -0.042 | [5] -0.045 | [6] -0.026 | [7] -0.013 | [8] -0.006 | [9] 0.008 | [10] 0.061 | [11] -0.03 | [12] 0.001 | [13] 0.024 | [14] 0.002 | [15] -0.013 | [16] 0.052 | [17] 0 | [18] 0.013 | [19] 0.007 | [20] 0.067

PAIP1 (UniProt Q9H074)
inactive: [1] -0.008 | [2] 0.018 | [3] 0.013 | [4] -0.039 | [5] -0.008 | [6] -0.041 | [7] 0.018 | [8] -0.019 | [9] -0.036 | [10] -0.065 | [11] -0.019 | [12] 0.022 | [13] -0.011 | [14] 0.013 | [15] -0.065 | [16] 0.004 | [17] 0.032 | [18] -0.016 | [19] -0.056 | [20] -0.002

PEPD (UniProt P12955)
inactive: [1] 0.026 | [2] 0.07 | [3] -0.008 | [4] -0.04 | [5] -0.01 | [6] 0.01 | [7] -0.022 | [8] -0.009 | [9] 0.022 | [10] 0.041 | [11] -0.006 | [12] 0.001 | [13] 0.194 | [14] -0.023 | [15] 0 | [16] 0.036 | [17] 0.082 | [18] -0.052 | [19] -0.075 | [20] 0.01
